According to article PMC10009750 (Journal of Medicinal Chemistry, 2023):

Test: general procedure: Fmoc solid-phase peptide synthesis; PEGA1900
Settings: whole synthesis, UHPLC (crude); HPLC (vendor peptides)

Row | Substance | crude HPLC purity [%]
1 | KY(NO2)TESESRGK(Abz)IYYKKG | ≥ 76
2 | Y(NO2)PESESRGAIYK(Abz)KKG | ≥ 72
3 | Y(NO2)PESESRGAIYYKK(Abz)G | ≥ 66
4 | Y(NO2)PESESRGK(Abz)IYYKKG | ≥ 64
5 | Y(NO2)TEGESRGAIYK(Abz)KKG | ≥ 76
6 | Y(NO2)TEGESRGAIYYKK(Abz)G | ≥ 82
7 | Y(NO2)TEGESRGK(Abz)IYYKKG | ≥ 71
8 | Y(NO2)TESESRGAIYJKK(Abz)G | ≥ 88
9 | Y(NO2)TESESRGAIYK(Abz)BKG | ≥ 80
10 | Y(NO2)TESESRGAIYK(Abz)KKG | ≥ 78
11 | Y(NO2)TESESRGAIYLKK(Abz)G | ≥ 91
12 | Y(NO2)TESESRGAIYYKK(Abz)G | ≥ 78
13 | Y(NO2)TESESRGK(Abz)IYYKKG | ≥ 81
14 | Y(NO2)TESESRGK(Abz)JYYKKG | ≥ 77
15 | Y(NO2)TESESRGZIYK(Abz)KKG | ≥ 75
16 | Y(NO2)TGTESESRGK(Abz)IYYKKG | ≥ 72
17 | Y(NO2)XESESRGK(Abz)IYYKKG | ≥ 65
